The target of one experiment is GFP-STX17 (syntaxin 17) (UniProt P56962). Briefly: co-IP; HEK293T cells co-transfected for 24 h with Flag-GPNMB and one tagged SNARE protein (or GFP-STX17 truncations); lysis in IP buffer with 1% NP-40, 50 mM Tris-HCl pH 7.4, 50 mM EDTA, 150 mM NaCl; protein A/G magnetic beads, 4 °C.
Experiment [1] deals with STX17 (syntaxin 17), endogenous in THP-1 cells (human (endogenous in THP-1)) (UniProt P56962). Kind of experiment: co-IP.

Amino acid sequences for entries named in this document (tags omitted).
UniProt P56962: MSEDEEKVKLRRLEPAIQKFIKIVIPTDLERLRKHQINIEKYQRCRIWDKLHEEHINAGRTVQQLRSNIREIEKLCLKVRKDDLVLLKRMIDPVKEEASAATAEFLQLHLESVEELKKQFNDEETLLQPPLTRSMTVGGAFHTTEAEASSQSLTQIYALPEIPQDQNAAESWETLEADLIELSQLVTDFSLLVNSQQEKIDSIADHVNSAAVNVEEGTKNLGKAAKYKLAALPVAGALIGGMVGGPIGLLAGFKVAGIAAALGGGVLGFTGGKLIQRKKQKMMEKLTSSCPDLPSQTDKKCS

Results are given in words; binding and its absence hold for the method and conditions named. Binding seen in cells or lysates may run through a third protein. Some binding calls cover weakened binding; strength is not graded here. For some assays here: Where a sequence is shown, tags or fusion partners need not be part of it.

Among the data in paper PMC12041529 are binding values, retold here.

B1: Flag-GPNMB (glycoprotein nonmetastatic melanoma protein B) (protein, UniProt Q14956 23-572)
chain: KRFHDVLGNERPSAYMREHNQLNGWSSDENDWNEKLYPVWKRGDMRWKNSWKGGRVQAVLTSDSPALVGSNITFAVNLIFPRCQKEDANGNIVYEKNCRNEAGLSADPYVYNWTAWSEDSDGENGTGQSHHNVFPDGKPFPHHPGWRRWNFIYVFHTLGQYFQKLGRCSVRVSVNTANVTLGPQLMEVTVYRRHGRAYVPIAQVKDVYVVTDQIPVFVTMFQKNDRNSSDETFLKDLPIMFDVLIHDPSHFLNYSTINYKWSFGDNTGLFVSTNHTVNHTYVLNGTFSLNLTVKAAAPGPCPPPPPPPRPSKPTPSLATTLKSYDSNTPGPAGDNPLELSRIPDENCQINRYGHFQATITIVEGILEVNIIQMTDVLMPVPWPESSLIDFVVTCQGSIPTEVCTIISDPTCEITQNTVCSPVDVDEMCLLTVRRTFNGSGTYCVNLTLGDDTSLALTSTLISVPDRDPASPLRMANSALISVGCLAIFVTVISLLVYKKHKEYNPIENSPGNVVRSKGLSVFLNRAKAVFFPGNQEKDPLLKNQEFKGVS
B1: the binding entry with GFP-STX17 (syntaxin 17) was “binds”.

B2: GPNMB (glycoprotein nonmetastatic melanoma protein B), endogenous in THP-1 cells (protein, UniProt Q14956 23-572)
chain: B1 chain
For B2, the binding result in experiment [1] is “binds”.
